Results from US20060235012A1, “Carboline and betacarboline derivatives for use as hdac enzyme inhibitors” (Chroma Therapeutics Limited, priority 2003, published 2006).
At least one compound was matched to its structure with a doubt left.

Molecular target: histone deacetylase activity (HeLa nuclear extract)
Assay: HDAC fluorescent activity assay (Biomol Fluor de Lys), HeLa nuclear extract
Type: biochemical
Settings: HeLa nuclear extract as HDAC source; Fluor de Lys substrate; IC50 range; read-out: Inhibitor Activity versus HDAC
Method: The ability of compounds of Examples 1 to 17 to inhibit histone deacetylase activities was measured using the commercially available HDAC fluorescent activity assay from Biomol. In brief, the Fluor de Lys™ substrate, a lysine with an epsilon-amino acetylation, is incubated with the source of histone deacetylase activity (HeLa nuclear extract) in the presence or absence of inhibitor. Deacetylation of the substrate sensitises the substrate to Fluor de Lys™ developer, which generates a fluorophore. Thus, incubation of the substrate with a source of HDAC activity results in an increase in signal that is diminished in the presence of an HDAC inhibitor.
Data are expressed as a percentage of the control, measured in the absence of inhibitor, with background signal being subtracted from all samples, as follows:— % activity=((S^i−B)/(S^o−B))×100 where S^i is the signal in the presence of substrate, enzyme and inhibitor, S^o is the signal in the presence of substrate, enzyme and the vehicle in which the inhibitor is dissolved, and B is the background signal measured in the absence of enzyme.
IC50 values were determined by non-linear regression analysis, after fitting the results of eight data points to the equation for sigmoidal dose response with variable slope (% activity against log concentration of compound), using Graphpad Prism software. […]

**Q.** How did the IC50 turn out when `O=C(CCCCCCC(=O)N1CCc2c([nH]c3ccccc23)C1)NO` [Example 1, 8-Oxo-(1,3,4,9-tetrahydro-β-carbolin-2-yl)-octanoic acid hydroxyamide] was run?
**A.** The IC50 was under 330 nM.
